The supplement of paper PMC10849652
The other results are listed elsewhere or left out.

Amino acid sequences for entries named in this document (tags omitted). A change or cut given only in a name is not applied to a line headed by its entry.
UniProt Q96IJ6: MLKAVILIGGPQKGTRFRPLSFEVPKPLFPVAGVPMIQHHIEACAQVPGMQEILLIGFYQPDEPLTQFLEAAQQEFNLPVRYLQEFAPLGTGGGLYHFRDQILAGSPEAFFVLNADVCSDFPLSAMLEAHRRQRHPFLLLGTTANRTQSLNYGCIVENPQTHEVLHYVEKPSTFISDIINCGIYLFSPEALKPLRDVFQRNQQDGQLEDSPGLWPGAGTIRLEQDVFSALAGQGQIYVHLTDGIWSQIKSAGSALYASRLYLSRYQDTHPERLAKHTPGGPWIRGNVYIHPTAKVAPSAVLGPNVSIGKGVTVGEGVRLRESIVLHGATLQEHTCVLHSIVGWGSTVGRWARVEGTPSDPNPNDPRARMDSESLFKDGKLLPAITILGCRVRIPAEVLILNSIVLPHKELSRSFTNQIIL
UniProt Q14691: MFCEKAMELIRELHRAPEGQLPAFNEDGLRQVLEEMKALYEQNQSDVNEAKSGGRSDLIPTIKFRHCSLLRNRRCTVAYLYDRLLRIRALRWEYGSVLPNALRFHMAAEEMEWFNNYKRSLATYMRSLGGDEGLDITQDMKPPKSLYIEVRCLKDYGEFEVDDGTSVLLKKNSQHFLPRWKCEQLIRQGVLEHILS
UniProt O95249: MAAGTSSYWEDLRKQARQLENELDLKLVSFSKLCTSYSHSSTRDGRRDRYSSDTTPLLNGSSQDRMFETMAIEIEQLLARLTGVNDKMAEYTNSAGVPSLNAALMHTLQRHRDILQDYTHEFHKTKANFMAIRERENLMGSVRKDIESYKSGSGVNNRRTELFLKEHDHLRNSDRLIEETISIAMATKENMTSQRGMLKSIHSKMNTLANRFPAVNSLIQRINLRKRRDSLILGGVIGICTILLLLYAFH
UniProt Q13098: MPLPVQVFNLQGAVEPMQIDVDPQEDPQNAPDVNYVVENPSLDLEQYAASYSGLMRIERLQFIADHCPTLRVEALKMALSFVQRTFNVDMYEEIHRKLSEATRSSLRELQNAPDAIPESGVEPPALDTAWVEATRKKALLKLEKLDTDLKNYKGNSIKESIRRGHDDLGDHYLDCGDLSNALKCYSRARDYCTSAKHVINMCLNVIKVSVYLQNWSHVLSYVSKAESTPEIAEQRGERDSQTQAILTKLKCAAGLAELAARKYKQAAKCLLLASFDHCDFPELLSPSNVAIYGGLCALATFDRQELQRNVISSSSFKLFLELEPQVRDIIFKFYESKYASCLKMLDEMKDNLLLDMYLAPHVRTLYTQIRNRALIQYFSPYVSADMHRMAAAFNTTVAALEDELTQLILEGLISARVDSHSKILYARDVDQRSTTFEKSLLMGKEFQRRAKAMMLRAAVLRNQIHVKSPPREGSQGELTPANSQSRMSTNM
UniProt Q9P107: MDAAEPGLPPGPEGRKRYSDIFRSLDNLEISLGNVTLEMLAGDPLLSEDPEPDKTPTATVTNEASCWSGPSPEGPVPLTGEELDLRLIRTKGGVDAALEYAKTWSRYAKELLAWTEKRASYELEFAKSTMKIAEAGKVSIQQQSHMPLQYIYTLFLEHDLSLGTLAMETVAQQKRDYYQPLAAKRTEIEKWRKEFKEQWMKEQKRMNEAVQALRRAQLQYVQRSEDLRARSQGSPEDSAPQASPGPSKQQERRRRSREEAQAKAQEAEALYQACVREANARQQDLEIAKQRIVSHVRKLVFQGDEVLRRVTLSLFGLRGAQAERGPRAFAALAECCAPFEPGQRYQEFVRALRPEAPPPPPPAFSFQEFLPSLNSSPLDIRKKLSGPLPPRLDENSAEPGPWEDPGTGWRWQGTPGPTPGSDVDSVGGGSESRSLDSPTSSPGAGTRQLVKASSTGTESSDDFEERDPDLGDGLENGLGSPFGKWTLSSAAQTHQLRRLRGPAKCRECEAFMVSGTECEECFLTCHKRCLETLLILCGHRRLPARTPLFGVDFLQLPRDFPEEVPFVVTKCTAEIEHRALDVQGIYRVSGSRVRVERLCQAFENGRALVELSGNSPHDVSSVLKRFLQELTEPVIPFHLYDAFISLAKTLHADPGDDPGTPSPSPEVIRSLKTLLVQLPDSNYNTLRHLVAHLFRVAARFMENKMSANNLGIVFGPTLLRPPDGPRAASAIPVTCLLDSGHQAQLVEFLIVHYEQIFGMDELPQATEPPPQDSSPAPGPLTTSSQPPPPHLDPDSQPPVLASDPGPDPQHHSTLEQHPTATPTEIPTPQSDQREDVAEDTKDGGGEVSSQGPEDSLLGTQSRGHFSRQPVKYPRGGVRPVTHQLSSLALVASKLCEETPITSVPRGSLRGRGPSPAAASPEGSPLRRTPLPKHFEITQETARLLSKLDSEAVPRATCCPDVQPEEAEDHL
UniProt O14908: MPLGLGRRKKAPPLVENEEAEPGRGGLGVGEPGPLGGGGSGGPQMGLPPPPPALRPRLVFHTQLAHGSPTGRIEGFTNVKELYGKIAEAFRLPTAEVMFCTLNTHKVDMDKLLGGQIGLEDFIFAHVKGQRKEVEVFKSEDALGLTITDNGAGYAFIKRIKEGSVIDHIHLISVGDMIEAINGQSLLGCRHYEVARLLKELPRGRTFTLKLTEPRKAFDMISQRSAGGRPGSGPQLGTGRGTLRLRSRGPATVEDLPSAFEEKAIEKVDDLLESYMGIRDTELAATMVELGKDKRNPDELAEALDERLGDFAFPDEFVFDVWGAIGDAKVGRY
UniProt Q9NS18: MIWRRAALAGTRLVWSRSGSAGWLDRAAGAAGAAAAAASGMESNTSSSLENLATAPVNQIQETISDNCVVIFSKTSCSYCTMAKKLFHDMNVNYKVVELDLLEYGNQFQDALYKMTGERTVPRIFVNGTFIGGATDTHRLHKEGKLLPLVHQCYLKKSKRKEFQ
UniProt Q92896: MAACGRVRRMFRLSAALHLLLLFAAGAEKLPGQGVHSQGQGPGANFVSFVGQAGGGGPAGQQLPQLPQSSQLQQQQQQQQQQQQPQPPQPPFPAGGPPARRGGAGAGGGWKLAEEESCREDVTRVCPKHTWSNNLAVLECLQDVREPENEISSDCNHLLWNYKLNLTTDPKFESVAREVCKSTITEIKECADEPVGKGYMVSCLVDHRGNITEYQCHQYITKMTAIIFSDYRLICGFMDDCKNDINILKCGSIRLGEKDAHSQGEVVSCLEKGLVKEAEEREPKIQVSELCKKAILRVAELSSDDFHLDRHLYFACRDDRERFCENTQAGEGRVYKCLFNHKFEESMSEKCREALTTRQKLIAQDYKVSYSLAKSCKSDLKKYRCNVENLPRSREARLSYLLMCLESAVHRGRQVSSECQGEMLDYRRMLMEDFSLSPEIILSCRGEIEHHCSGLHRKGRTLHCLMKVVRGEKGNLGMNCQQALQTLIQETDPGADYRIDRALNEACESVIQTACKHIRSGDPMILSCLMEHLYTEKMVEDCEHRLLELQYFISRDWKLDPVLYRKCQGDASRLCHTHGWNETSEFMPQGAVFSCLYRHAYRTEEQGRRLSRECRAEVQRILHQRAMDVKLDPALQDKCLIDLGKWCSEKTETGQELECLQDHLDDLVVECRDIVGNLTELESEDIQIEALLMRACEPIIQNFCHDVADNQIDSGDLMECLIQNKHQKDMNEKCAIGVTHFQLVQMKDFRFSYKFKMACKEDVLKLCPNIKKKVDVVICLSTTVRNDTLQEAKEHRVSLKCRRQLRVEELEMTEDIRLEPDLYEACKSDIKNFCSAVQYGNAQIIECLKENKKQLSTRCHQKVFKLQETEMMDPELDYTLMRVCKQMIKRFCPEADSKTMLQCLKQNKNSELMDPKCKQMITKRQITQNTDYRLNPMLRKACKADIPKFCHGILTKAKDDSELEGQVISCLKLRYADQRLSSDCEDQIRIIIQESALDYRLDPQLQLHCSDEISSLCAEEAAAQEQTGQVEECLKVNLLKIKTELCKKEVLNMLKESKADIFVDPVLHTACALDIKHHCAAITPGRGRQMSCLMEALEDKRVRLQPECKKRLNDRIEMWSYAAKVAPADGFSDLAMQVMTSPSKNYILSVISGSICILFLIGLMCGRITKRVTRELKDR
UniProt Q9H4A5: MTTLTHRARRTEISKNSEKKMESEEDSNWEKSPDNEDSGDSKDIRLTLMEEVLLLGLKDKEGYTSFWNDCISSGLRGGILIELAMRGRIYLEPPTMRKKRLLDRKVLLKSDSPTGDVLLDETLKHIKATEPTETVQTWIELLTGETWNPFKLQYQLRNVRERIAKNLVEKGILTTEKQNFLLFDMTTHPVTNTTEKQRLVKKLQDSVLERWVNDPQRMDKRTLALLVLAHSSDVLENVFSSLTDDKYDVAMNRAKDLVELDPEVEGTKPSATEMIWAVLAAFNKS
UniProt P00367: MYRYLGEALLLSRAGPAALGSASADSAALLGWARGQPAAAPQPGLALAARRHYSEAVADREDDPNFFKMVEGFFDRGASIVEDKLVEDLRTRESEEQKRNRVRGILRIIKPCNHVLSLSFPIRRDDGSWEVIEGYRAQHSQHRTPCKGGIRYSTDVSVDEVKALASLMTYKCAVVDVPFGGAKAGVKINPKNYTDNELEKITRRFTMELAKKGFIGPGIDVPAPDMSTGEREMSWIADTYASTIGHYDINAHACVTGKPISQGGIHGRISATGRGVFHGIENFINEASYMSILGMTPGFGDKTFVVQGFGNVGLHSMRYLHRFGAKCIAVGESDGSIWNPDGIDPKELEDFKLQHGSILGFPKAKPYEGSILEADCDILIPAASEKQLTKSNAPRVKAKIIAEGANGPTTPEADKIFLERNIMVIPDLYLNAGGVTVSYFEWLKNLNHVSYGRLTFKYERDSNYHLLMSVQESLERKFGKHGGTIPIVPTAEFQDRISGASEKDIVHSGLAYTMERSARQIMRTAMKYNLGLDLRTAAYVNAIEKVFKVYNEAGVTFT
UniProt Q6Y7W6: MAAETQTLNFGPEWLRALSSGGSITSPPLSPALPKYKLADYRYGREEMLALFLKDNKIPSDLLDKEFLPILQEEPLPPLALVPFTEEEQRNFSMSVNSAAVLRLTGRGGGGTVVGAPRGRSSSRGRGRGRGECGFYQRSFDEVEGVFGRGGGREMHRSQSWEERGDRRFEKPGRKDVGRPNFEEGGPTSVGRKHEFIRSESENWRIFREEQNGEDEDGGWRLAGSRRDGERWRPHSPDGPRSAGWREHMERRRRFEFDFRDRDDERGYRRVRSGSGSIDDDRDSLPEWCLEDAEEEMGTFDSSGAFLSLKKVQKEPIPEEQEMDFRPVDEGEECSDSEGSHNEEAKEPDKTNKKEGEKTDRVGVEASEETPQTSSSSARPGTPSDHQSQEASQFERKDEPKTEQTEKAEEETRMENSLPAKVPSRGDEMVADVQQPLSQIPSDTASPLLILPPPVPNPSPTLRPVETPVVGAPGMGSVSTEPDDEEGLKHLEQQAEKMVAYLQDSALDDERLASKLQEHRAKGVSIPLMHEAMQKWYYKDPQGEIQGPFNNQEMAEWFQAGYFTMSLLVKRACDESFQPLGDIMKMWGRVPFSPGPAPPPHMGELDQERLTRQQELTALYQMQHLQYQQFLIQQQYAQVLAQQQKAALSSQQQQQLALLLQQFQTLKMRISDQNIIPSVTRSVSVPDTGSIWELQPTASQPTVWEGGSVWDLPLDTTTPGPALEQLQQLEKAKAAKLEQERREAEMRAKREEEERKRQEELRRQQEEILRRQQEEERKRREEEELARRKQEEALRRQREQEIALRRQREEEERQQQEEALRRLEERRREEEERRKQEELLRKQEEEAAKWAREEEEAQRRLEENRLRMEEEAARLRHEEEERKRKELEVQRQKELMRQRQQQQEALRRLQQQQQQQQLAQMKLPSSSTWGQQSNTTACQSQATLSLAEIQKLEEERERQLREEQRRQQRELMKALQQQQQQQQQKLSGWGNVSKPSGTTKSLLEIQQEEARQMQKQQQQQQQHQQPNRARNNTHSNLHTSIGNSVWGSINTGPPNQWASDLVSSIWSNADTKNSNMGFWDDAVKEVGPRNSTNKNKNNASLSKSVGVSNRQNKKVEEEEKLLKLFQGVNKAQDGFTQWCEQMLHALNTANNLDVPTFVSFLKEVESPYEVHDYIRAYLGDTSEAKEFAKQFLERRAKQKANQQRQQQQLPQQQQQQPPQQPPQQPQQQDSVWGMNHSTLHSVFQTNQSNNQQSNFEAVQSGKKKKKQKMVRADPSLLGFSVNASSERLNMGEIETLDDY
UniProt P06280: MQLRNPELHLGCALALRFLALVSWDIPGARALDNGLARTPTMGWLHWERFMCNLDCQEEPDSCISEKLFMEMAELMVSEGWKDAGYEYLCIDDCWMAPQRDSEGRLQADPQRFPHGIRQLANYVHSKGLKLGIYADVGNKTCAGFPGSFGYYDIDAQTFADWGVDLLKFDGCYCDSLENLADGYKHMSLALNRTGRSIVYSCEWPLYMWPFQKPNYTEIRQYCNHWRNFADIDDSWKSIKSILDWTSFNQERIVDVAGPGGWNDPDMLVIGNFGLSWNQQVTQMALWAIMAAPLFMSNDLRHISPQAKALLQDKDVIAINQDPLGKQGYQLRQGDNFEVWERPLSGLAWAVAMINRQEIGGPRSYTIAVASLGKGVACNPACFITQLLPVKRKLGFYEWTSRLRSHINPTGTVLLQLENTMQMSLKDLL

Legend:
Test in all cases: log2 fold change, soluble protein after heating vs DMSO (PISA); higher = thermal stabilisation; K562 cells, 10 uM, 30 min; active = over 0.2 and 3.5 SD of the protein, either way, in both replicates (recomputed)
[1] = compound: CS(=O)(=O)c1ccc(-c2cnc(N)c(C(=O)Nc3ccccc3)n2)cc1
How it was run: (§1)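 K562 cells (2×10^6 cells/mL) were treated with 10 μM compound for 30 min, and aliquots were heated for 3 min over 48°C-58°C. Pooled aliquots were extracted in PBS with 0.5% NP-40 at 4°C, and the supernatant after 21,000xg for 90 min was measured by TMTpro 16plex LC-MS/MS with channel sums equalised. Reported thermal stability, relative to control samples and from duplicates, is a log2 fold change.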

crizotinib = compound: C[C@@H](Oc1cc(-c2cnn(C3CCNCC3)c2)cnc1N)c1c(Cl)ccc(F)c1Cl [crizotinib]
How it was run: as §1

[2] = compound: C[C@@H]1COCCN1C2=NC(=NC(=C2)C3(CC3)S(=O)(=O)C)C4=C5C=CNC5=CC=C4
How it was run: as §1

[3] = compound: C[C@H](C1=CC=C(C=C1)C(=O)NC2=C3C=CNC3=NC=C2)N
How it was run: as §1

duvelisib = compound: C[C@H](Nc1ncnc2nc[nH]c12)c1cc2cccc(Cl)c2c(=O)n1-c1ccccc1 [duvelisib]
How it was run: as §1

gandotinib = compound: Cc1cc(Nc2cc(CN3CCOCC3)c3nc(C)c(Cc4ccc(Cl)cc4F)n3n2)n[nH]1 [gandotinib]
How it was run: as §1

tozasertib = compound: Cc1cc(Nc2cc(N3CCN(C)CC3)nc(Sc3ccc(NC(=O)C4CC4)cc3)n2)n[nH]1 [tozasertib]
How it was run: as §1

[4] = compound: Cc1cc(SCc2sc(-c3ccc(C(F)(F)F)cc3)nc2C)ccc1OCC(=O)O
How it was run: as §1

doramapimod = compound: Cc1ccc(-n2nc(C(C)(C)C)cc2NC(=O)Nc2ccc(OCCN3CCOCC3)c3ccccc23)cc1 [doramapimod]
How it was run: as §1

ispinesib = compound: Cc1ccc(C(=O)N(CCCN)[C@@H](c2nc3cc(Cl)ccc3c(=O)n2Cc2ccccc2)C(C)C)cc1 [ispinesib]
How it was run: as §1

Measured: log2 fold change

GMPPA (UniProt Q96IJ6)
inactive: [1] 0.017 | crizotinib 0.02 | [2] 0.092 | [3] -0.039 | duvelisib 0.076 | gandotinib -0.046 | tozasertib -0.034 | [4] 0.039 | doramapimod -0.039 | ispinesib 0.05

GINS3 (UniProt Q9BRX5)
inactive: [1] -0.008 | crizotinib 0.046 | [2] 0.036 | [3] -0.062 | duvelisib 0.039 | gandotinib -0.005 | tozasertib 0.004 | [4] 0.063 | doramapimod -0.019 | ispinesib 0.013

GINS1 (UniProt Q14691)
inactive: [1] -0.004 | crizotinib -0.033 | [2] -0.047 | [3] 0.005 | duvelisib 0.015 | gandotinib 0.027 | tozasertib 0.009 | [4] -0.037 | doramapimod 0.04 | ispinesib 0.05

GOSR1 (UniProt O95249)
inactive: [1] -0.008 | crizotinib -0.136 | [2] 0.016 | [3] -0.095 | duvelisib -0.007 | gandotinib -0.041 | tozasertib 0.01 | [4] 0.08 | doramapimod 0.021 | ispinesib -0.074

Reprinted at random: two records from the list
GMPPA (UniProt Q96IJ6)
inactive: [1] 0.017 | crizotinib 0.02 | [2] 0.092 | [3] -0.039 | duvelisib 0.076 | gandotinib -0.046 | tozasertib -0.034 | [4] 0.039 | doramapimod -0.039 | ispinesib 0.05

GOSR1 (UniProt O95249)
inactive: [1] -0.008 | crizotinib -0.136 | [2] 0.016 | [3] -0.095 | duvelisib -0.007 | gandotinib -0.041 | tozasertib 0.01 | [4] 0.08 | doramapimod 0.021 | ispinesib -0.074

Going on with the list:

GID8 (UniProt Q9NWU2)
inactive: [1] -0.022 | crizotinib 0.079 | [2] 0.158 | [3] -0.032 | duvelisib 0.099 | gandotinib -0.004 | tozasertib 0.06 | [4] 0.121 | doramapimod 0.051 | ispinesib 0.059

GRSF1 (UniProt Q12849)
inactive: [1] -0.039 | crizotinib -0.045 | [2] -0.001 | [3] 0.249 | duvelisib 0 | gandotinib 0.043 | tozasertib -0.004 | [4] 0.167 | doramapimod 0.009 | ispinesib -0.161

GPS1 isoform 7 (UniProt Q13098)
inactive: [1] -0.011 | crizotinib 0.002 | [2] 0.046 | [3] -0.077 | duvelisib 0.014 | gandotinib -0.021 | tozasertib 0.001 | [4] -0.025 | doramapimod -0.014 | ispinesib 0.027

GMPR (UniProt P36959)
inactive: [1] 0.008 | crizotinib 0.015 | [2] 0.054 | [3] -0.048 | duvelisib 0.07 | gandotinib -0.03 | tozasertib -0.041 | [4] 0.048 | doramapimod -0.015 | ispinesib 0.049

GMIP (UniProt Q9P107)
inactive: [1] -0.045 | crizotinib -0.049 | [2] -0.061 | [3] 0.24 | duvelisib -0.046 | tozasertib 0.026 | [4] 0.067 | doramapimod -0.005 | ispinesib -0.026

GORASP2 isoform 3 (UniProt Q9H8Y8)
inactive: [1] 0.017 | crizotinib 0.029 | [2] 0.022 | [3] 0.124 | duvelisib -0.023 | gandotinib -0.113 | tozasertib 0.005 | [4] 0.134 | doramapimod 0.096 | ispinesib 0.083

GNAQ (UniProt P50148)
inactive: [1] 0.028 | crizotinib 0.126 | [2] 0.097 | [3] -0.086 | duvelisib -0.019 | gandotinib 0.001 | tozasertib -0.028 | [4] 0.046 | doramapimod -0.029 | ispinesib 0.048

GPBP1L1 (UniProt Q9HC44)
inactive: [1] 0.064 | crizotinib -0.128 | [2] -0.011 | [3] 0.015 | duvelisib 0.059 | gandotinib 0.063 | tozasertib -0.009 | [4] 0.033 | doramapimod 0.028 | ispinesib -0.049

GIPC1 (UniProt O14908)
inactive: [1] 0.024 | crizotinib 0.057 | [2] 0.047 | [3] -0.002 | duvelisib 0.031 | gandotinib 0.015 | tozasertib 0.131 | [4] 0.045 | doramapimod 0.044 | ispinesib 0.022

GLRX2 isoform 2 (UniProt Q9NS18)
inactive: [1] -0.022 | crizotinib 0.035 | [2] -0.024 | [3] -0.115 | duvelisib 0.031 | gandotinib -0.088 | tozasertib 0.026 | [4] 0.079 | doramapimod -0.077 | ispinesib 0.081

GOT1 (UniProt P17174)
inactive: [1] 0.005 | crizotinib 0.011 | [2] 0.064 | [3] -0.062 | duvelisib 0.022 | gandotinib -0.019 | tozasertib -0.014 | [4] -0.008 | doramapimod -0.012 | ispinesib 0.019

GLG1 isoform 2 (UniProt Q92896)
inactive: [1] 0.013 | crizotinib 0.02 | [2] -0.003 | [3] -0.038 | duvelisib 0.049 | gandotinib -0.014 | tozasertib -0.017 | [4] -0.005 | doramapimod -0.025 | ispinesib 0.012

GPR107 (UniProt Q5VW38)
inactive: [1] -0.023 | crizotinib 0.041 | [2] -0.025 | [3] -0.038 | duvelisib 0 | gandotinib 0.016 | tozasertib 0.028 | [4] -0.027 | doramapimod -0.005 | ispinesib 0.028

GLRX5 (UniProt Q86SX6)
inactive: [1] 0.05 | crizotinib 0.033 | [2] 0.118 | [3] -0.093 | duvelisib 0.165 | tozasertib 0.154 | [4] 0.01 | doramapimod -0.048 | ispinesib 0.15

GNPTAB (UniProt Q3T906)
inactive: [1] -0.051 | crizotinib 0.042 | [2] -0.149 | [3] 0.133 | duvelisib 0.042 | gandotinib 0.047 | tozasertib -0.034 | [4] -0.062 | doramapimod 0.023 | ispinesib 0.037

GOLPH3L (UniProt Q9H4A5)
inactive: [1] 0.169 | crizotinib 0.072 | [2] -0.028 | gandotinib 0.09 | doramapimod 0.287

GLUD1 (UniProt P00367)
inactive: [1] 0.16 | crizotinib -0.016 | [2] 0.058 | [3] 0.005 | gandotinib 0.141 | [4] -0.057 | doramapimod 0.048 | ispinesib -0.048

GOLPH3 (UniProt Q9H4A6)
active: ispinesib 0.379
inactive: [1] -0.028 | crizotinib 0.176 | [2] 0.006 | [3] -0.038 | gandotinib -0.112 | [4] 0.012 | doramapimod -0.011

GIGYF2 (UniProt Q6Y7W6)
inactive: [1] 0.005 | crizotinib -0.084 | [2] 0.083 | [3] 0 | gandotinib -0.03 | [4] 0.114 | doramapimod -0.028 | ispinesib -0.179

GLA (UniProt P06280)
inactive: [1] -0.033 | crizotinib -0.205 | [2] -0.019 | [3] 0.018 | gandotinib -0.066 | [4] 0.034 | doramapimod -0.036 | ispinesib -0.148

GPS2 (UniProt Q13227)
active: ispinesib 0.31
inactive: [1] -0.114 | crizotinib 0.019 | [2] 0.208 | doramapimod 0.047

GPAT4 (UniProt Q86UL3)
active: crizotinib 0.287
inactive: [1] 0.15 | [2] 0.066 | [3] -0.071 | gandotinib -0.009 | [4] 0.061 | doramapimod -0.063 | ispinesib 0.194

GIGYF1 (UniProt O75420)
inactive: [1] 0.017 | crizotinib 0.045 | [2] -0.062 | [3] 0.119 | gandotinib 0.098 | doramapimod -0.075 | ispinesib -0.013
